In publication PMC10591015:
These are yes or no findings as the source states them, for the method shown. In cells and extracts the contact can be indirect. Some results given as binding are weak or reduced against the parent protein; the word gives no strength.

Amino acid sequences for entries named in this document (tags omitted). A change or cut given only in a name is not applied to a line headed by its entry. Chains listed by the source or under a name are the forms on record and can include a tag or linker.
flag-tagged mouse NELFB WT (in MEFs) (Q8C4Y3, form named): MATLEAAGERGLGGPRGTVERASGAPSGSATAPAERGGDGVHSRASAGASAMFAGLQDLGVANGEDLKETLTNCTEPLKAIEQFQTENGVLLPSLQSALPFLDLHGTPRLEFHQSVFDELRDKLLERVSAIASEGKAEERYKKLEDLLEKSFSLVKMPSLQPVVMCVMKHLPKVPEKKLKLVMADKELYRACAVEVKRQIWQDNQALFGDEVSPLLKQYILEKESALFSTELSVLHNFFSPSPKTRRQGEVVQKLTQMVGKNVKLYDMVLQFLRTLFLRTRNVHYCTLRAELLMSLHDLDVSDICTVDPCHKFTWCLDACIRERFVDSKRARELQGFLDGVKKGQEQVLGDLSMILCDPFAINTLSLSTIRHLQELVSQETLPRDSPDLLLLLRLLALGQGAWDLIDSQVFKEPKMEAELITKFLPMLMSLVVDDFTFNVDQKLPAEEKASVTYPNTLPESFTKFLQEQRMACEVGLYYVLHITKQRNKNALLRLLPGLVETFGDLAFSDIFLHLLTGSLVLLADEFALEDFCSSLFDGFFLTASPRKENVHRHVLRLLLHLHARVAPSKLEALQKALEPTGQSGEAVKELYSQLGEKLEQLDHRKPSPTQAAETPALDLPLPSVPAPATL
UniProt Q8BG30: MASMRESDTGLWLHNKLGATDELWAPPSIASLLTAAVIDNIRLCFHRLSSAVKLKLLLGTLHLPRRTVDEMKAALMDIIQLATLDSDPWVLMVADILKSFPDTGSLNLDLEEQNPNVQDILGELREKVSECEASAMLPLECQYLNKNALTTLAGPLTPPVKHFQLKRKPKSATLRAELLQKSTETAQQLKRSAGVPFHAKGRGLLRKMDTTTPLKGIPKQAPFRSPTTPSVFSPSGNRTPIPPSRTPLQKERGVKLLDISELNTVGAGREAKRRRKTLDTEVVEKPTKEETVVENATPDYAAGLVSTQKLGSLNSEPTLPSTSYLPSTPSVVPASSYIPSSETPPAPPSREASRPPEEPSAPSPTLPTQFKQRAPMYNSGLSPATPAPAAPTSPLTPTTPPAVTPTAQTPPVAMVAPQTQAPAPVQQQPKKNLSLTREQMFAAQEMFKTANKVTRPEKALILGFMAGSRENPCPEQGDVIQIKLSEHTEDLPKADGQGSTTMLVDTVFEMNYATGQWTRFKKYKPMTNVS
UniProt Q922L6: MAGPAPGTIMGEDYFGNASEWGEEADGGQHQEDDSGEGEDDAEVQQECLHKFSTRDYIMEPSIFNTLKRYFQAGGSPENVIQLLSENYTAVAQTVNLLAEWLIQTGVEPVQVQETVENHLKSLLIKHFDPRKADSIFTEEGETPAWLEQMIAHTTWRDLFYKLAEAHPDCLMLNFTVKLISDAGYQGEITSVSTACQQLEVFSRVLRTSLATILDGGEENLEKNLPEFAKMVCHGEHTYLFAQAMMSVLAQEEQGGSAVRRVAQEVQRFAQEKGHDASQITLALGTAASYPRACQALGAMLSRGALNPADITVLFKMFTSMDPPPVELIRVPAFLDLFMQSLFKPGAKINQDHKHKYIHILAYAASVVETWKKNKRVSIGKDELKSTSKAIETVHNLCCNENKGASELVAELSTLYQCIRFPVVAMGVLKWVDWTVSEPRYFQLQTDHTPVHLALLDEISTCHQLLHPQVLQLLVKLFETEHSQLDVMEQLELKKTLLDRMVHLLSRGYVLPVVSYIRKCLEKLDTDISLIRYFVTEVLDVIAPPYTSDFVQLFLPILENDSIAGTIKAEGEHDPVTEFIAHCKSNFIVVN
UniProt P19426: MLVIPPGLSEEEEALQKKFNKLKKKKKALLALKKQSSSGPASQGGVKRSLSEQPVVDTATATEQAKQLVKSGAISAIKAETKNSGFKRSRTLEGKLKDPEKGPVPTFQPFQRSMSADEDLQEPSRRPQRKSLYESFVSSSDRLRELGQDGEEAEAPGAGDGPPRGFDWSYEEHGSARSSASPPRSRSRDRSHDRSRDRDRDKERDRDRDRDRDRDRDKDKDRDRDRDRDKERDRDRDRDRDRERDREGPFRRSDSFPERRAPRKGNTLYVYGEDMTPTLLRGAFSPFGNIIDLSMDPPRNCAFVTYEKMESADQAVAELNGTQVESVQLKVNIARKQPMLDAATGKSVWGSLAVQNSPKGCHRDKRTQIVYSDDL

Molecular target: flag-tagged mouse NELFB WT (in MEFs) (mouse) (UniProt Q8C4Y3)
Assay: co-IP; MEFs with flag-tagged mouse NELFB WT or mutants; whole-cell lysate in NP-40 lysis buffer, flag M2 magnetic agarose beads at 4 °C overnight, elution with 3x flag peptide, Western blotting of NELF subunits

Substance	binding
NELFA (endogenous, MEFs) (from UniProt Q8BG30 1-530)	binds
NELFC (endogenous, MEFs) (from UniProt Q922L6 1-591)	binds
NELFE (endogenous, MEFs) (from UniProt P19426 1-375)	binds
